According to publication PMC5085234, “Monomeric gremlin is a novel vascular endothelial growth factor receptor-2 antagonist” (Oncotarget, 2016):
These are yes or no findings as the source states them, for the method shown. Some results given as binding are weak or reduced against the parent protein; the word gives no strength. Where a sequence is shown, tags or fusion partners need not be part of it.

The chains behind the UniProt entries cited, without tags or fusion partners. Residues count along the entry.
UniProt P35918, residues 20-1345: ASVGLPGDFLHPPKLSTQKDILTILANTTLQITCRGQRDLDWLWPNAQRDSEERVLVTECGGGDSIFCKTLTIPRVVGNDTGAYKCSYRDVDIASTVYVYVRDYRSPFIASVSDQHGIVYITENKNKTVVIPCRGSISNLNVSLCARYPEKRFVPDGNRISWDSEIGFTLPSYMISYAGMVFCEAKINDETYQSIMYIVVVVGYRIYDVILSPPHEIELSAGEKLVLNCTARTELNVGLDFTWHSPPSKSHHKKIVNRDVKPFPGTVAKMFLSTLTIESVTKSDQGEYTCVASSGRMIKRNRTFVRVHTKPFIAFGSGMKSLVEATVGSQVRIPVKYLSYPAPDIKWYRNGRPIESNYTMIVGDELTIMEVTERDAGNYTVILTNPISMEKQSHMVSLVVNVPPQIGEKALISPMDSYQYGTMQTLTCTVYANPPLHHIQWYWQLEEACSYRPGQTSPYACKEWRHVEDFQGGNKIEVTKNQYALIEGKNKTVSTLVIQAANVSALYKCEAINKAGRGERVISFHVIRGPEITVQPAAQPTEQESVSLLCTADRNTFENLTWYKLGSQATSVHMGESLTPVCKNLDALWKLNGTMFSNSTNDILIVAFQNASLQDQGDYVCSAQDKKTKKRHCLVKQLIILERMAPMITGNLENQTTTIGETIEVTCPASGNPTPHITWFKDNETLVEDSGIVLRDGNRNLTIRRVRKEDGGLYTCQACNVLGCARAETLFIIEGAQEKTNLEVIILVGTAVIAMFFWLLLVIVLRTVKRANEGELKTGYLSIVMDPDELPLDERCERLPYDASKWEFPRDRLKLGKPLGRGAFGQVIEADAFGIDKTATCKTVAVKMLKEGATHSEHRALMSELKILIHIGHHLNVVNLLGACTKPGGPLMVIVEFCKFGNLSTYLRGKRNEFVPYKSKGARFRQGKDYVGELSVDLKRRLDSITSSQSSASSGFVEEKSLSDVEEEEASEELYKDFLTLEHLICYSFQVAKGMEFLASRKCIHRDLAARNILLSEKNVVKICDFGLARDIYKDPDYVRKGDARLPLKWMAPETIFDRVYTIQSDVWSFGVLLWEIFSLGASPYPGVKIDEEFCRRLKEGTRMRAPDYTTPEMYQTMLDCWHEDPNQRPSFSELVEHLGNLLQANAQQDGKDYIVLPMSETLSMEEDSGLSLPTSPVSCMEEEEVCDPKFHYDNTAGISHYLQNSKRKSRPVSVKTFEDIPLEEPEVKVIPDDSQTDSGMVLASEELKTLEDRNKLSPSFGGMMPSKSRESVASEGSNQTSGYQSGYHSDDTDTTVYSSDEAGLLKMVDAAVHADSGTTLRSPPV

T1: his-tagged gremlin^C141A mutant, rat (rat, UniProt O35793 25-184, C141A)
T1 construct: secreted into the medium; monomer; also called gremlin^C141A monomer; monomeric gremlin^C141A; not shown: His tag, C-terminal, kept
T1 sequence (looked up): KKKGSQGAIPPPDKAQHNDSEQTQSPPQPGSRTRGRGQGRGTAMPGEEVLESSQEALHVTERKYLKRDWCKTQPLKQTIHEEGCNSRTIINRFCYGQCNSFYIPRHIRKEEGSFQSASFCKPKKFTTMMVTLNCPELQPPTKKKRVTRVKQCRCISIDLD


Tests used:
[1] = molecular target: mouse VEGFR2 on VEGFR2-overexpressing ECs (GM7373 cells) (mouse) (UniProt P35918); assay: ELISA; VEGFR2-overexpressing ECs incubated with 150 ng/mL of gremlin with or without 1.5 ug of VEGF-A165 for 2 hours at 4°C, washed with 2.0 M NaCl to remove gremlin bound to HSPGs, bound gremlin detected with anti-gremlin antibody; only the binder purified
[2] = molecular target: T1, his-tagged gremlin^C141A mutant, rat; assay: non-reducing SDS-PAGE with Western blot; recombinant his-tagged gremlin purified by IMAC (and heparin-affinity chromatography), SDS-PAGE without beta-mercaptoethanol, anti-gremlin WB, silver staining; both purified
[3] = molecular target: T1, his-tagged gremlin^C141A mutant, rat; assay: cross-linking; 0.05% glutaraldehyde for 20 minutes at RT, SDS-PAGE under reducing conditions, anti-gremlin WB; both purified

| Binder | binding [1] | binding [2] | binding [3] |
| --- | --- | --- | --- |
| his-tagged wild-type gremlin (gremlin^WT), rat (natural protein, UniProt O35793 25-184, looked up, secreted into the medium; covalent homodimer through Cys141; The IMAC-purified preparation holds monomer and dimer (used for non-reducing SDS-PAGE and SEC); the heparin 1.2 M NaCl fraction holds only the disulfide-linked dimer (98.5% purity) and is the form used in ELISA, SPR and cell assays; N-glycosylated and non-glycosylated forms are present; also called gremlin^WT dimer; dimeric gremlin^WT; …) KKKGSQGAIPPPDKAQHNDSEQTQSPPQPGSRTRGRGQGRGTAMPGEEVLESSQEALHVTERKYLKRDWCKTQPLKQTIHEEGCNSRTIINRFCYGQCNSFYIPRHIRKEEGSFQSCSFCKPKKFTTMMVTLNCPELQPPTKKKRVTRVKQCRCISIDLD | binds |  |  |
| his-tagged gremlin^C141A mutant, rat (protein, UniProt O35793 25-184) KKKGSQGAIPPPDKAQHNDSEQTQSPPQPGSRTRGRGQGRGTAMPGEEVLESSQEALHVTERKYLKRDWCKTQPLKQTIHEEGCNSRTIINRFCYGQCNSFYIPRHIRKEEGSFQSASFCKPKKFTTMMVTLNCPELQPPTKKKRVTRVKQCRCISIDLD | binds | no binding | no binding |
